For the test, the target named is T1, fluorescently labelled CD276 antigen (UniProt Q5ZPR3).
T1 sequence (fluorescently labelled (fluorophore and site not stated), looked up): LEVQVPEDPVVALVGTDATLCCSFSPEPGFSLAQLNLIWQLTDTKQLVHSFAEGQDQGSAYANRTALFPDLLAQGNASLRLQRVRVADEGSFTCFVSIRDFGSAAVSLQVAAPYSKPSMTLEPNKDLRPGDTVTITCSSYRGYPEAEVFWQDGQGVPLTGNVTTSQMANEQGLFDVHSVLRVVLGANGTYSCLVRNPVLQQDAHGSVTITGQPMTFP
Briefly: flow cytometry; labelled soluble CD276 antigen on CHO cells expressing CARs from the hSync CARPool vector.

No constants are given. Whether binding was seen depends on the method and setting. Some entries that bind do so weakly or less than the wild type.

The record followed here is patent US20250177526A1.

B1: CD276 CAR (protein)
chain: EIVMTQSPATLSVSPGERVTLSCRASQSISDYLYWYQQKSHESPRLLIKYASQSISGIPARFSGSGSGSEFTLTINSVEPEDVGVYYCQNGHSFPLTFGQGTKLELKRSGGGGSGGGGSGGGGSGGGGQVQLVQSGAEVVKPGASVKLSCKTSGYTFTNYDINWVRQRPGQGLEWIGWIFPGDDSTQYNEKFKGKATLTTDTSTSTAYMELSSLRSEDTAVYFCARQTTGTWFAYWGQGTLVTVSSAAAIEVMYPPPYLDNEKSNGTIIHVKGKHLCPSPLFPGPSKPFWVLVVVGGVLACYSLLVTVAFIIFWVRSKRSRLLHSDYMNMTPRRPGPTRKHYQPYAPPRDFAAYRSRVKFSRSADAPAYQQGQNQLYNELNLGRREEYDVLDKRRGRDPEMGGKPRRKNPQEGLYNELQKDKMAEAYSEIGMKGERRRGKGHDGLYQGLSTATKDTYDALHMQALPPRVSGWRLFKKIS
As for B1, the binding result is reported as “binds”.
